We go through one sequence from article PMC8931530.

The exact form of at least one protein or probe is not confirmed.

For the series, the system named is GST-TcMYB29a (Taxus chinensis). Put plainly: EMSA. Conditions: LightShift Chemiluminescent EMSA Kit per manufacturer; pH and temperature not stated; recombinant protein; protein details: N-terminal GST (pGEX-4T-1); label: 3' biotin. (In general: In EMSA bound probe runs differently from free probe, usually more slowly.)

“TACAATCCCCCGAGTACTCCCCCCTCCGTTAAGTTAAGCATCCTCCTCTTCCCCCA / TGGGGGAAGAGGAGGATCCTTAACTTAACGGAGGGGGGAGTACTCGGGGGATTGTA [B1 probe (TcT5OH promoter)]”: the binding result is recorded as “binds”.
